Measured values reported in the supplement of paper PMC4604168 (melanoma cell lines).
This is one part of the list. Many values rest on one well or one pass, so single values are uncertain.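 Imaging used 1,536-well plates; nuclei positive for cleaved PARP by antibody were divided by total DNA-stained nuclei to yield the apoptosis fraction. Doses for screening kept most cells viable, and cell lines differ markedly in resting and induced cleaved-PARP levels.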

Key:
Assay in all cases: cleaved PARP positive nuclei fraction relative to DMSO control; melanoma cells; higher = more apoptosis
Details in all cases: library dose: low library concentration; 72 h
[1] = tested on: 501Mel
[2] = tested on: A101D
[3] = tested on: A2058
[4] = tested on: A375
[5] = tested on: C32
[6] = tested on: CBRC008 (line from a melanoma biopsy)
[7] = tested on: CBRC013 (line from a melanoma biopsy)
[8] = tested on: CBRC014 (line from a melanoma biopsy)
[9] = tested on: CBRC016 (line from a melanoma biopsy)
[10] = tested on: CBRC017 (line from a melanoma biopsy)

Structure (SMILES) | cleaved PARP positive nuclei fraction [1] [%] | cleaved PARP positive nuclei fraction [2] [%] | cleaved PARP positive nuclei fraction [3] [%] | cleaved PARP positive nuclei fraction [4] [%] | cleaved PARP positive nuclei fraction [5] [%] | cleaved PARP positive nuclei fraction [6] [%] | cleaved PARP positive nuclei fraction [7] [%] | cleaved PARP positive nuclei fraction [8] [%] | cleaved PARP positive nuclei fraction [9] [%] | cleaved PARP positive nuclei fraction [10] [%]
C[C@@H](N)c1ccc(C(=O)Nc2ccnc3[nH]ccc23)cc1 + O=C(O)c1ccc(-c2c[nH]c3ncc(-c4ccccc4)cc23)cc1C1CCCC1 [GSK650394] (first compound 0.4 µM, partner dose 0.16 µM) | 97 | 44.1 | 170 | 40.4 | 294 | 197 | 97.6 | 108 | 268 | 122
Cn1cnc2c(F)c(Nc3ccc(Br)cc3Cl)c(C(=O)NOCCO)cc21 [selumetinib] + Cc1cc(N2CCOCC2)cc2[nH]c(-c3c(NC[C@@H](O)c4cccc(Cl)c4)cc[nH]c3=O)nc12 [BMS536924] (first compound 0.015 µM, partner dose 0.2 µM) | 287 | 77.3 | 97.9 | 136 | 61.5 | 233 | 184 | 239 | 92.3 | 150
CS(=O)(=O)c1ccc(C(=O)Nc2ccc(Cl)c(-c3ccccn3)c2)c(Cl)c1 [vismodegib] + O=C(Nc1cccc(Cl)c1)Nc1ncc(CCNc2ncnc3ccsc23)s1 [SNS314] (first compound 1 µM, partner dose 0.0008 µM) | 30 | 80.6 | 101 | 37 | 65 | 54.5 | 99.8 | 82.9 | 37.3 | 658
COc1ccc(C2=N[C@@H](c3ccc(Cl)cc3)[C@@H](c3ccc(Cl)cc3)N2C(=O)N2CCNC(=O)C2)c(OC(C)C)c1 [Nutlin-3] + CN(C)S(=O)(=O)c1ccc2c(c1)/C(=C/c1cc3c([nH]1)CCCC3)C(=O)N2 [SU6656] (first compound 0.1 µM, partner dose 0.4 µM) | 148 | 264 | 164 | 159 | 36.9 | 71.3 | 107 | 93.2 | 60.5 | 118
CS(=O)(=O)c1ccc(C(=O)Nc2ccc(Cl)c(-c3ccccn3)c2)c(Cl)c1 [vismodegib] + C[C@@H]1CCN(C(=O)CC#N)C[C@@H]1N(C)c1ncnc2[nH]ccc12 [CP690550] (first compound 1 µM, partner dose 1 µM) | 84.2 | 87.1 | 63.8 | 45.9 | 126 | 69 | 121 | 83.5 | 164 | 96.3
Cn1cnc2c(F)c(Nc3ccc(Br)cc3Cl)c(C(=O)NOCCO)cc21 [selumetinib] + C[C@@H]1CCN(C(=O)CC#N)C[C@@H]1N(C)c1ncnc2[nH]ccc12 [CP690550] (first compound 0.015 µM, partner dose 1 µM) | 149 | 265 | 96.4 | 154 | 48.3 | 192 | 128 | 83.5 | 106 | 113
CN(c1ncccc1CNc1nc(Nc2ccc3c(c2)CC(=O)N3)ncc1C(F)(F)F)S(C)(=O)=O + NC(=O)Nc1cc(-c2cccc(F)c2)sc1C(=O)N[C@H]1CCCNC1 [AZD7762] (first compound 0.08 µM, partner dose 0.02 µM) | 117 | 203 | 130 | 275 | 550 | 202 | 104 | 107 | 152 | 108
C[C@]1(O)C[C@@H](c2nc(-c3ccc4ccc(-c5ccccc5)nc4c3)c3c(N)nccn32)C1 + COc1cc(Nc2ncc(F)c(Nc3ccc4c(n3)NC(=O)C(C)(C)O4)n2)cc(OC)c1OC [Tamatinib] (first compound 0.4 µM, partner dose 0.4 µM) | 596 | 199 | 164 | 675 | 152 | 192 | 210 | 106 | 34.5 | 114
CCN(CC)CCNC(=O)c1c(C)[nH]c(/C=C2\C(=O)Nc3ccc(F)cc32)c1C [sunitinib] + CN(C)S(=O)(=O)c1ccc2c(c1)/C(=C/c1cc3c([nH]1)CCCC3)C(=O)N2 [SU6656] (first compound 0.4 µM, partner dose 0.4 µM) | 50.9 | 105 | 142 | 54.7 | 67.7 | 39.3 | 222 | 94.9 | 148 | 99
NC(=O)c1ccc(N(C(N)=O)c2c(F)cccc2F)nc1-c1ccc(F)cc1F + NC(=O)Nc1cc(-c2cccc(F)c2)sc1C(=O)N[C@H]1CCCNC1 [AZD7762] (first compound 0.4 µM, partner dose 0.02 µM) | 282 | 52.2 | 25 | 90.4 | 118 | 159 | 119 | 110 | 22.4 | 90.2
CC(=O)O[C@@]12CO[C@@H]1C[C@H](O)[C@@]1(C)C(=O)[C@H](O)C3=C(C)[C@@H](OC(=O)[C@H](O)[C@@H](NC(=O)OC(C)(C)C)c4ccccc4)C[C@@](O)([C@@H](OC(=O)c4ccccc4)[C@H]21)C3(C)C [Docetaxel] + O=C(CCCCCCC(=O)Nc1ccccc1)NO [vorinostat] (first compound 0.0001 µM, partner dose 0.08 µM) | 218 | 117 | 4980 | 6130 | 199 | 281 | 102 | 197 | 158 | 224
CS(=O)(=O)c1ccc(C(=O)Nc2ccc(Cl)c(-c3ccccn3)c2)c(Cl)c1 [vismodegib] + CO[C@@H]1[C@H](N(C)C(=O)c2ccccc2)C[C@H]2O[C@]1(C)n1c3ccccc3c3c4c(c5c6ccccc6n2c5c31)C(=O)NC4 [Midostaurin] (first compound 1 µM, partner dose 0.08 µM) | 75.1 | 77.5 | 121 | 79.3 | 67.8 | 98.7 | 161 | 75.2 | 49.6 | 134
CC1(C)CCC(c2ccc(Cl)cc2)=C(CN2CCN(c3ccc(C(=O)NS(=O)(=O)c4ccc(N[C@H](CCN5CCOCC5)CSc5ccccc5)c(S(=O)(=O)C(F)(F)F)c4)cc3)CC2)C1 + CC(C)(C)c1cnc(CSc2cnc(NC(=O)C3CCNCC3)s2)o1 [SNS-032] (first compound 0.4 µM, partner dose 0.01 µM) | 232 | 129 | 77 | 106 | 412 | 701 | 660 | 271 | 980 | 325
C[C@]1(O)C[C@@H](c2nc(-c3ccc4ccc(-c5ccccc5)nc4c3)c3c(N)nccn32)C1 + O=C(O)c1ccc(-c2c[nH]c3ncc(-c4ccccc4)cc23)cc1C1CCCC1 [GSK650394] (first compound 0.4 µM, partner dose 0.16 µM) | 95.3 | 72.7 | 63.9 | 441 | 33.4 | 400 | 115 | 99 | 164 | 176
Cn1sc(=O)n(Cc2ccccc2)c1=O + NC(=O)Nc1cc(-c2cccc(F)c2)sc1C(=O)N[C@H]1CCCNC1 [AZD7762] (first compound 0.4 µM, partner dose 0.02 µM) | 73 | 136 | 56.9 | 356 | 195 | 125 | 136 | 105 | 69.7 | 168
NC(=O)c1ccc(N(C(N)=O)c2c(F)cccc2F)nc1-c1ccc(F)cc1F + CN(C)S(=O)(=O)c1ccc2c(c1)/C(=C/c1cc3c([nH]1)CCCC3)C(=O)N2 [SU6656] (first compound 0.4 µM, partner dose 0.4 µM) | 74.8 | 56.5 | 62.6 | 347 | 113 | 45 | 82.2 | 125 | 44.6 | 119
CCN(CC)CCNC(=O)c1c(C)[nH]c(/C=C2\C(=O)Nc3ccc(F)cc32)c1C [sunitinib] + NCC(=O)Nc1ccc(-n2nc(C(F)(F)F)cc2-c2ccc3c(ccc4ccccc43)c2)cc1 [OSU03012] (first compound 0.4 µM, partner dose 1 µM) | 298 | 273 | 56.6 | 3120 | 137 | 116 | 204 | 97.4 | 86.6 | 121
C[C@]1(O)C[C@@H](c2nc(-c3ccc4ccc(-c5ccccc5)nc4c3)c3c(N)nccn32)C1 + C=CCn1c(=O)c2cnc(Nc3ccc(N4CCN(C)CC4)cc3)nc2n1-c1cccc(C(C)(C)O)n1 [MK1775] (first compound 0.4 µM, partner dose 0.02 µM) | 565 | 228 | 151 | 429 | 94.4 | 55.5 | 119 | 113 | 59.1 | 76.4
C[C@]1(O)C[C@@H](c2nc(-c3ccc4ccc(-c5ccccc5)nc4c3)c3c(N)nccn32)C1 + CC1(C)NC(=O)N(c2ccc([N+](=O)[O-])c(C(F)(F)F)c2)C1=O [nilutamide] (first compound 0.4 µM, partner dose 1 µM) | 85.2 | 36.8 | 59.3 | 128 | 67.5 | 71.8 | 120 | 90.8 | 104 | 78.3

Exported tab-delimited: entries from further up
Structure (SMILES)	cleaved PARP positive nuclei fraction [1] [%]	cleaved PARP positive nuclei fraction [2] [%]	cleaved PARP positive nuclei fraction [3] [%]	cleaved PARP positive nuclei fraction [4] [%]	cleaved PARP positive nuclei fraction [5] [%]	cleaved PARP positive nuclei fraction [6] [%]	cleaved PARP positive nuclei fraction [7] [%]	cleaved PARP positive nuclei fraction [8] [%]	cleaved PARP positive nuclei fraction [9] [%]	cleaved PARP positive nuclei fraction [10] [%]
CN(c1ncccc1CNc1nc(Nc2ccc3c(c2)CC(=O)N3)ncc1C(F)(F)F)S(C)(=O)=O + NC(=O)Nc1cc(-c2cccc(F)c2)sc1C(=O)N[C@H]1CCCNC1 [AZD7762] (first compound 0.08 µM, partner dose 0.02 µM)	117	203	130	275	550	202	104	107	152	108
CC(=O)O[C@@]12CO[C@@H]1C[C@H](O)[C@@]1(C)C(=O)[C@H](O)C3=C(C)[C@@H](OC(=O)[C@H](O)[C@@H](NC(=O)OC(C)(C)C)c4ccccc4)C[C@@](O)([C@@H](OC(=O)c4ccccc4)[C@H]21)C3(C)C [Docetaxel] + O=C(CCCCCCC(=O)Nc1ccccc1)NO [vorinostat] (first compound 0.0001 µM, partner dose 0.08 µM)	218	117	4980	6130	199	281	102	197	158	224
